No constants are given. Whether binding was seen depends on the method and setting. Binding calls can cover weak binding; strength is not graded here.
Biological target: pGBKT7-N500ΔRED (Arabidopsis thaliana)
Test: two-hybrid; yeast two-hybrid, pGBKT7 bait and pGADT7 prey in S. cerevisiae strain Gold; growth on SD/-His/-Leu/-Trp/-Ade at 30°C for 3 days

binding: binds
B1: pGADT7-MSI4 (protein, UniProt O22607 1-507)
chain: MESDEAAAVSPQATTPSGGTGASGPKKRGRKPKTKEDSQTPSSQQQSDVKMKESGKKTQQSPSVDEKYSQWKGLVPILYDWLANHNLVWPSLSCRWGPQLEQATYKNRQRLYLSEQTDGSVPNTLVIANCEVVKPRVAAAEHISQFNEEARSPFVKKYKTIIHPGEVNRIRELPQNSKIVATHTDSPDVLIWDVETQPNRHAVLGAANSRPDLILTGHQDNAEFALAMCPTEPFVLSGGKDKSVVLWSIQDHITTIGTDSKSSGSIIKQTGEGTDKNESPTVGPRGVYHGHEDTVEDVAFSPTSAQEFCSVGDDSCLILWDARTGTNPVTKVEKAHDADLHCVDWNPHDDNLILTGSADNTVRLFDRRKLTANGVGSPIYKFEGHKAAVLCVQWSPDKSSVFGSSAEDGLLNIWDYDRVSKKSDRAAKSPAGLFFQHAGHRDKVVDFHWNASDPWTIVSVSDDCETTGGGGTLQIWRMSDLIYRPEEEVVAELEKFKSHVMTCASKP

From article PMC7413564, “Phase separation of Arabidopsis EMB1579 controls transcription, mRNA splicing, and development” (PLoS Biology, 2020)
